No constants are given. Whether binding was seen depends on the method and setting. Some binding calls cover weakened binding; strength is not graded here.
Assays:
[1] = molecular target: T1, LTα1β2 on the surface of PMA-treated II-23 cells (UniProt P01374); assay: competition FACS (II-23 assay, as in FIG. 4): LT-expressing cells, varied competitor, labelled LTβR-Ig; MFI of bound LTβR-Ig
T1 sequence 1: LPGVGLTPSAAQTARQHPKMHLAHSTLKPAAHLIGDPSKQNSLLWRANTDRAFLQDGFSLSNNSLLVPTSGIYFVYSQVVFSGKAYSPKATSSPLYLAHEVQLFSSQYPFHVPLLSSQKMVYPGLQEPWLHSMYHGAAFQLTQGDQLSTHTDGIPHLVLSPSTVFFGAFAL
T1 sequence 2: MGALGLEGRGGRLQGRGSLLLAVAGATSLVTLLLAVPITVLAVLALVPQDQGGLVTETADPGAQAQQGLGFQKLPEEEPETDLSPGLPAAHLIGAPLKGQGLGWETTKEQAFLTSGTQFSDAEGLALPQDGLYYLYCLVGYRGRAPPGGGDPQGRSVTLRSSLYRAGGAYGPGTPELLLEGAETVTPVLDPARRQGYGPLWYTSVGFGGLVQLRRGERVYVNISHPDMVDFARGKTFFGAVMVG

Chains of the proteins cited; added tags and fusions are not shown. Residues count along the entry.
UniProt P36941, residues 31-227: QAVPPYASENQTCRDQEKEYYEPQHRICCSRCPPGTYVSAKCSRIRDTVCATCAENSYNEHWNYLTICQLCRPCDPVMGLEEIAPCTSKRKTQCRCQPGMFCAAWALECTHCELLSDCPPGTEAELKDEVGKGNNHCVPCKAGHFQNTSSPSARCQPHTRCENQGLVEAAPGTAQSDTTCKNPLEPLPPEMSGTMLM

[2] = molecular target: T1, LTα1β2 on the surface of PMA-treated II-23 cells; assay: competition FACS (II-23 assay): PMA-treated II-23 cells, varied competitor, then biotin-LTβR-Ig at 1 ug/ml, streptavidin-PE; MFI of bound LTβR-Ig

- binding [1]: binds
- binding [2]: binds
Substance: LTβR-Ig (from UniProt P36941 31-227) (Fc fusion)
